Reference: patent US10117912B2 (priority 2013, dated 2018)

Key:
MDCKII-wt monolayer = conditions: dog, MDCK, pH 7.4
MDCKII-wt monolayers = conditions: pH 7.4

CN1C(=O)CN=C(c2ccccc2)c2cc(Cl)ccc21 [diazepam]
flux across MDCKII-wt monolayer (MDCKII-wt monolayer): 0.00045±0.00007 μg/cm^2 s
effect on TEER (monolayer integrity) (MDCKII-wt monolayers): unaffected
